Earlier results as cited in patent US20100210575A1, “STRUCTURING EFFECT OF CHOLESTEROL IN PEG-PHOSPHOLIPID MICELLES, DRUG DELIVERY OF AMPHOTERICIN B, AND COMBINATION ANTIFUNGALS” (WISCONSIN ALUMNI RESEARCH FOUNDATION, priority 2007, published 2010).
At least one compound was matched to its structure with a doubt left.

System: C. albicans
Conditions: literature (13, 14); cited from earlier work

## CO[C@H]1C[C@@H]2CC[C@@H](C)[C@@](O)(O2)C(=O)C(=O)N2CCCC[C@H]2C(=O)O[C@H]([C@H](C)C[C@@H]2CC[C@@H](O)[C@H](OC)C2)CC(=O)[C@H](C)/C=C(\C)[C@@H](O)[C@@H](OC)C(=O)[C@H](C)C[C@H](C)/C=C/C=C/C=C/1C [Rapamycin]
  MIC against C. albicans: < 0.02 µg/mL
